Positions count from the first letter of the chain named. Results are given in words; binding and its absence hold for the method and conditions named. Some results given as binding are weak or reduced against the parent protein; the word gives no strength.
T1: PTK7 on the SK-OV-3 cell line (human ovarian cancer cells) (human) (UniProt Q13308)
T1 sequence (looked up): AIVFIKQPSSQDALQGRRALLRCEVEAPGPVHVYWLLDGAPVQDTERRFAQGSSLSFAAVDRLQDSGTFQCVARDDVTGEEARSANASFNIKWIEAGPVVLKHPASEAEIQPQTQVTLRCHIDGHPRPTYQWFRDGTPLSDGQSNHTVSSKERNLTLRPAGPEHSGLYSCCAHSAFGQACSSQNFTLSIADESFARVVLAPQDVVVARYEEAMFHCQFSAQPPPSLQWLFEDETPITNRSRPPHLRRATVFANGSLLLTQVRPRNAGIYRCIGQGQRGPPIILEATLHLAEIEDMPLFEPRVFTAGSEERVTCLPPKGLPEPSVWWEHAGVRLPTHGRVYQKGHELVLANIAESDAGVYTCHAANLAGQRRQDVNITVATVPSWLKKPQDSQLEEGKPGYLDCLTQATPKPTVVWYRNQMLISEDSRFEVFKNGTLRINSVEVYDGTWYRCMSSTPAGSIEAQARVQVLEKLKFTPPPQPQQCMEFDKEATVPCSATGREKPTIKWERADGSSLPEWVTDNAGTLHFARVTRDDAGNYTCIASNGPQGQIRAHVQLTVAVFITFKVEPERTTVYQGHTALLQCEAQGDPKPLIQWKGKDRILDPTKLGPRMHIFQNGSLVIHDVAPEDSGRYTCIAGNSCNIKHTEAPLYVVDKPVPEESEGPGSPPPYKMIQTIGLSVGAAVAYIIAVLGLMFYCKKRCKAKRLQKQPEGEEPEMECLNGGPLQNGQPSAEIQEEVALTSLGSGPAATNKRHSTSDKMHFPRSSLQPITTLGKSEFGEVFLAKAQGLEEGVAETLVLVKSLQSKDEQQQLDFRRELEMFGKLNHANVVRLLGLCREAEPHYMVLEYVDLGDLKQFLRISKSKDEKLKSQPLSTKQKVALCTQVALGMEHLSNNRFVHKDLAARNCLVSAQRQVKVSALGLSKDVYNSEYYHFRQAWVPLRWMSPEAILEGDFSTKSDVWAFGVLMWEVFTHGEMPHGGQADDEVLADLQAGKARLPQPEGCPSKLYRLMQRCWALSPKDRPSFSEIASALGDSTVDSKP

B1: human-murine chimeric PTK7 antibody ch13 (antibody, V domains shown)
VH: QVQLQQSGAELVRPGVSVKISCKGSGYTFTDYGMHWLKQSHAKSLEWIGVISPYYGDVTYNQKFKGKATMTVDKSSSTAYMELARLTSEDSAIYYCARGMGYWGQGTSVTVSS
VL: DVQITQSPSYLAASPGETITINCRASQSISKYLAWYQEKPGKTNKLLIYSGSTLQSGIPSRFSGSGSGTDFTLTISSLEPEDFAMYYCQQHNEYPWTFGGGTKLEIK
B2: humanized PTK7 antibody Hu13H3L3 (antibody, V domains shown)
VH: QVQLVQSGAEVKKPGASVKISCKGSGYTFTDYGMHWLKQAPGQGLEWIGVISPYYGDVNYNQKFQGRATMTVDKSISTAYMELSRLRSDDTAVYYCARGMGYWGQGTLVTVSS
VL: DVQITQSPSFLSASVGDRVTITCRASQSISKYLAWYQQKPGKAPKLLIYSGSTLQSGVPSRFSGSGSGTEFTLTISSLQPEDFAMYYCQQHNEYPWTFGQGTKVEIK
B3: humanized PTK7 antibody Hu13H2L0 (antibody, V domains shown)
VH: B2 VH with I20V, K38R, I48M, A68V, V72R, A92V
VL: B2 VL with V2I, I4L, M85T
B4: humanized PTK7 antibody Hu13H2L3 (antibody, V domains shown)
VH: B2 VH with I20V, K38R, I48M, A68V, V72R, A92V
VL: B2 VL
B5: humanized PTK7 antibody Hu13H3L0 (Ab13) (antibody, V domains shown)
VH: B2 VH
VL: B2 VL with V2I, I4L, M85T
B6: humanized PTK7 antibody Hu13H3L5 (antibody, V domains shown)
VH: B2 VH
VL: B2 VL with F10Y, V15P, V19I, P44N

How the values were obtained:
[1] = target: T1, PTK7 on the SK-OV-3 cell line (human ovarian cancer cells) (human); assay: flow cytometry on SK-OV-3 cells
[2] = target: monkey PTK7 protein (Catalog No. PT7-C52H3, Acrobiosystems) (monkey); assay: ELISA, PTK7 protein immobilized on the plate

Binder | binding [1] | binding [2]
B1 | binds | binds
B2 | binds | 
B3 | binds | 
B4 | binds | 
B5 | binds | 
B6 | binds | 
